Results of single-concentration screens

Protein sequences, listed by entry. Tags and fused reporters are not part of them. Residues count along the entry.
UniProt I6X8D2, whole entry: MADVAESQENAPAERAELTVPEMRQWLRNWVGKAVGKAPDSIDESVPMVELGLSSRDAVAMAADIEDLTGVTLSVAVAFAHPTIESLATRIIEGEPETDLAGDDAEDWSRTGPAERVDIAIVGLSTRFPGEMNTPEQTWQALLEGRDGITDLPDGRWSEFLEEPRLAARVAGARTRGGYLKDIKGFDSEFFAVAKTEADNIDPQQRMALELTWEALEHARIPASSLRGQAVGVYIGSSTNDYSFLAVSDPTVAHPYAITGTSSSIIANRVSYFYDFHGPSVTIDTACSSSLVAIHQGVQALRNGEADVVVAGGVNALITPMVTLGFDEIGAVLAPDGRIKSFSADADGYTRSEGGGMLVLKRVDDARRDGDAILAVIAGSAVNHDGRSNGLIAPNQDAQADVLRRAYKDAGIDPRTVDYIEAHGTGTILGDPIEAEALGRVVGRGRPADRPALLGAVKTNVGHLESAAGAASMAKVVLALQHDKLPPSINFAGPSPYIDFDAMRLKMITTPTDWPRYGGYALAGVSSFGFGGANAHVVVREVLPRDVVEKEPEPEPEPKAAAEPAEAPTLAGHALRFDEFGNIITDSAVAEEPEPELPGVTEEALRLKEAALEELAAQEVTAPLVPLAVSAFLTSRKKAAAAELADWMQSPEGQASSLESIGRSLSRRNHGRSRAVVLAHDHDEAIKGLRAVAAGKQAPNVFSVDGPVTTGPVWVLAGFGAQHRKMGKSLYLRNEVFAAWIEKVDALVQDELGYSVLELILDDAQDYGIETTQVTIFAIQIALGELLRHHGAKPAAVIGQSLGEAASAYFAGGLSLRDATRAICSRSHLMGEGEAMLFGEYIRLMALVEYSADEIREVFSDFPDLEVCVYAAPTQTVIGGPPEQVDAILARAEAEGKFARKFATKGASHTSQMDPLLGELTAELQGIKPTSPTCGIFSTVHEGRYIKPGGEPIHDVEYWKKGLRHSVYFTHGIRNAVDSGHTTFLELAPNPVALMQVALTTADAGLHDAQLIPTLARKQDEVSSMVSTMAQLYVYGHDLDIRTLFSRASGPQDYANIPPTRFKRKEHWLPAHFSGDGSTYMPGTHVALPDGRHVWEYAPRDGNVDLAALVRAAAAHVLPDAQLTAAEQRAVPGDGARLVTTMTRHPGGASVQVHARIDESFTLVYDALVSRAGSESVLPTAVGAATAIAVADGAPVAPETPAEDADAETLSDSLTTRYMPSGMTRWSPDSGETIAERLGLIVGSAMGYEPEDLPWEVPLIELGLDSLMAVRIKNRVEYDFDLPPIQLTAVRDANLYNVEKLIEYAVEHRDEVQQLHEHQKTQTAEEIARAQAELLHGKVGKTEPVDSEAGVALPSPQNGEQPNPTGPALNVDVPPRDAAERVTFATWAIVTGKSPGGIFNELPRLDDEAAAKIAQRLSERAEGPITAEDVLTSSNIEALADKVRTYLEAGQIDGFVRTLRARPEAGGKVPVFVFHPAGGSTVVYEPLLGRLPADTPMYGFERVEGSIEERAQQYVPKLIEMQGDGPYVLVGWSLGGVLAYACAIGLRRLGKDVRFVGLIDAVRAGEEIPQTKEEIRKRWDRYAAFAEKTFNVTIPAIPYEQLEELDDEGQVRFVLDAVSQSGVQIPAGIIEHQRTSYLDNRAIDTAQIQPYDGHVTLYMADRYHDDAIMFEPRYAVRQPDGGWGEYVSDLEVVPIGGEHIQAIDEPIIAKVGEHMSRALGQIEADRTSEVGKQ
UniProt Q8IDJ8, 1-583: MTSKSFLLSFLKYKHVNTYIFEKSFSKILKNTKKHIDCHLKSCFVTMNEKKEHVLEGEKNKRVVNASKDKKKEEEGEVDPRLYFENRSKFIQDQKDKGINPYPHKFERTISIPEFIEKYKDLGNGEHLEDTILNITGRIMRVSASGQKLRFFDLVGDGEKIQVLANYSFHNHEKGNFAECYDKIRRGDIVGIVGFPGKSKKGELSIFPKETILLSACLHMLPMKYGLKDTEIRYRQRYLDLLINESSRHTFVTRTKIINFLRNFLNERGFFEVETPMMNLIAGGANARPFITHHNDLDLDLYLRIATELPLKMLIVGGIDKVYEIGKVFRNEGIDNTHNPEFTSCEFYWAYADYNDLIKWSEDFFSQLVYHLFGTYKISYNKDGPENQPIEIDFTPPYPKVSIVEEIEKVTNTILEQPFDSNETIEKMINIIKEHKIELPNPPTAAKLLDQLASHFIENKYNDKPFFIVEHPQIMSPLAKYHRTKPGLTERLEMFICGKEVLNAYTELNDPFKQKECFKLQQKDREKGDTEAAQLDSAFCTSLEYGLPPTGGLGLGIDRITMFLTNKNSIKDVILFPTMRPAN
UniProt P9WNZ1, whole entry: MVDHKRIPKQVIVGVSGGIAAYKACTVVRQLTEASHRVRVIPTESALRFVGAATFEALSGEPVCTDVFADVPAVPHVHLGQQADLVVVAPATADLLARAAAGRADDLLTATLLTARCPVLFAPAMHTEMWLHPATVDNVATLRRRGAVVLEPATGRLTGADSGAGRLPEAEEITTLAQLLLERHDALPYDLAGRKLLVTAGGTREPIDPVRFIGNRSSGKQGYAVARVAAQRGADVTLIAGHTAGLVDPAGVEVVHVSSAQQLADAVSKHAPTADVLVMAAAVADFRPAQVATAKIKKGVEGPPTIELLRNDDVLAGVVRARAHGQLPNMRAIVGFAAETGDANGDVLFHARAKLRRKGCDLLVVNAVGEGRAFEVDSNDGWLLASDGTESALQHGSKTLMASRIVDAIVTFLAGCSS

Pks13 thioesterase: 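Enzyme assay of the thioesterase domain of polyketide synthase 13; the read-out is not stated. Target: Polyketide synthase Pks13, Mycobacterium tuberculosis (UniProt I6X8D2). Tested at 30 µM. Higher reads as stronger inhibition (inferred from which compounds were picked for retests). Of about 67,000 compounds tested this way, about 300 (0.46%) reached 50% or more in at least one test.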
PfKRS1: 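Lysine-tRNA ligase, Plasmodium falciparum 3D7 (UniProt Q8IDJ8). Enzyme assay of the cytosolic lysyl-tRNA synthetase in 384-well plates, read by luminescence. Concentration: 30 µM. Direction is inferred from only a few compounds that gave an IC50; most scored high, so higher reads as stronger inhibition. About 69,000 compounds were tested under these conditions; 0.071% (about 49) showed 50% or more at least once.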
CoaBC: 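Enzyme assay of CoaBC with a phosphate dye (Biomol Green) read at 650 nm. Target: Coenzyme A biosynthesis protein CoaBC, Mycobacterium tuberculosis (UniProt P9WNZ1). Concentration: 30 µM. Higher reads as stronger inhibition, judged from the few compounds that gave an IC50. Most strong results did not repeat in a second test. Of about 67,000 compounds tested this way, about 40 (0.06%) reached 50% or more in at least one test.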

Each number is a percent effect as filed.
The record does not define 0% and 100%; most values in the screen are far below 50% and negative numbers occur (in some assays of this library far below -100).
Compounds were drawn at random from those tested, without regard to their results.
A dash means the value is not listed here; it may have been measured.

Compound	Pks13 thioesterase	PfKRS1	CoaBC
Cc1cccc(OCCN2CCN(Cc3cnn(CCO)c3)CC2)c1	-4.982	-1.327	0.3736
O=c1cc(CN2CCCC2)nc2n1CCCN(Cc1ccsc1)C2	-22.21	5.866	6.864
CC(C)CCN(C(=O)Nc1cccc(C(=O)N(C)C)c1)C1CC1	-2.076	3.299	1.217
CC(C)c1cc(-c2cnn(C)c2C2CC2)c(C#N)c(N)n1	-33.95	1.57	1.394
COCc1cn(C2CCN(Cc3ccc(Cl)s3)CC2)nn1	-4.215	1.472	3.672
CN(C)C(=O)c1cncnc1-c1ccc(CNC(=O)C2CC2)cc1	-24.7	-1.061	-0.9864
CCOCCNc1nc(-c2ccncc2)nc2c1CCNCC2	-7.924	-4.427	-7.009
NC(=O)CCNC(=O)Cc1cccc(I)c1	5.34	3.196	0.9823
CC1CCc2n[nH]c(C(=O)NCCc3ccco3)c2C1 (stereo not given)	-15.91	-1.735	9.545
O=C1[C@H]2CN(c3ncccn3)C[C@H]2CN1CC1CC1	-1.501	1.663	1.921
Cc1cc(C)n(C2CCCN(C(=O)Cc3cccc(F)c3)C2)n1 (stereo not given)	0.2382	-1.092	3.412
CCOC(C)C(=O)NCc1cccc(CN2CCCCCC2)c1 (stereo not given)	-5.622	0	-17.93
O=C(c1ccc(NC2CC2)nc1)N1CCCC(n2cccn2)C1 (stereo not given)	3.565	-5.833	-1.33
CCCOc1ccc(OCCN2CCOCS2(=O)=O)cc1	-2.858	7.518	-0.8464
CN(CCc1nccs1)C(=O)C1(C#N)CCCCC1	-17.59	2.606	6.542
CCN1CC2(CC1=O)CN(Cc1ccoc1)CCN(C(=O)C(C)C)C2 (stereo not given)	-9.38	3.184	6.266
CC(=O)Nc1ncc(S(=O)(=O)Nc2ccccc2)s1	-0.6353	3.715	-4.157
CO[C@H]1CCN(S(=O)(=O)N(C)C)[C@@H]2CN(Cc3cccnc3)C[C@H]12	12.32	-3.546	-10
COc1cccc(Cn2c(=O)n(C)c(=O)c3sccc32)c1	-34.07	14.42	3.639
Cc1ccc(NC2(C(=O)N3CCn4cncc4C3)CCCCC2)cc1C	-15.88	7.689	4.822
Cc1nc2ccccc2n1Cc1cc(C(=O)NC2CCOC2)no1 (stereo not given)	-3.742	0.5034	2.651
CC(C)c1nc(CN2CCOC(Cn3cncn3)C2)no1 (stereo not given)	-12.73	2.32	3.061
Cc1cccc(C(=O)N2CCCCC2c2nc(C)cs2)n1 (stereo not given)	-11.94	3.278	2.628
CCc1nc2ccccc2c(=O)n1CC1(O)CCN(C(=O)COC)CC1	-1.29	1.613	-3.676
Cc1ccc(CNC2(Cc3cc(C(C)(C)O)on3)COC2)o1	-28.83	7.541	-6.402
CC(C)CCC(=O)Nc1ccc2oc(=O)n(CCN(C)C)c2c1	23.37	9.355	-9.917
CCc1nc(C2CCCN(C(=O)c3cnn(CC)c3)C2)no1 (stereo not given)	-36.13	-4.121	5.803
Cc1cc(N2CCC(Cc3cccnc3)C2)ncn1 (stereo not given)	2.104	0.3051	7.363
CCS(=O)(=O)N1CCc2ccc(NC(=O)Nc3ccccc3)cc21	11	-3.733	-0.6017
c1csc(N2[C@H](Cn3cncn3)C[C@@H]3CNCC[C@@H]32)n1	20.13	-2.443	-
NC(=O)c1cncc(-n2ccc(-c3cnccn3)n2)c1	-8.669	4.469	3.415
CCOC(=O)C1(NCC(=O)Nc2cc(C)ccc2OC)CCCC1	-14.08	-1.446	5.368
CCN(Cc1c(F)cccc1F)Cn1nc(C)c2c(C)onc2c1=O	-11.38	0.04133	6.832
CC(=O)Cn1cc(C#N)c(=O)c2cc(Br)ccc21	-16.24	2.94	1.599
C[C@@H]1CN(C2CCN(Cc3cnc(-c4cccs4)nc3)CC2)C[C@H](C)O1	-3.846	-2.648	8.902
Cc1cc2ccccc2n1CCC(=O)NCCCc1nnc(N)s1	9.82	-0.5715	1.531
CC(NCCN1CCN(C(=O)C2CCCC2)CC1)c1nccs1 (stereo not given)	-12.38	-4.456	2.269
O=C(C1CCOCC1)N1CCN2C(=O)N(Cc3ccc(F)cc3)C[C@H]2C1	-2.322	3.657	11.96
Cc1nc(CN2C(=O)C[C@@H]3[C@@H]2CCN3Cc2cnn(C)c2)cs1	-18.69	5.337	17.65
CC(C)CNC(=O)CNc1c(NCc2ccco2)c(=O)c1=O	0.5241	1.983	3.671
CC(CS(C)(=O)=O)N(C(=O)CCc1ccsc1)C1CC1 (stereo not given)	-7.559	3.522	1.814
Cc1noc(C)c1CN1CCN(CC2CC2)c2ncccc2C1	-24	3.277	-0.5181
O=C(NC1CCC1)[C@H]1C[C@@H]2CN(CC3CC3)C[C@H]1O2	-9.217	3.171	1.22
Cc1nn(C)c(C)c1NC(=O)CN1CCc2c(nc(C(C)C)n2C)C1	-15.94	2.636	11.3

For reference, 5 entries once more:

* COc1cccc(Cn2c(=O)n(C)c(=O)c3sccc32)c1 | Pks13 thioesterase: -34.07%; PfKRS1: 14.42%; CoaBC: 3.639%
* CCOCCNc1nc(-c2ccncc2)nc2c1CCNCC2 | Pks13 thioesterase: -7.924%; PfKRS1: -4.427%; CoaBC: -7.009%
* NC(=O)CCNC(=O)Cc1cccc(I)c1 | Pks13 thioesterase: 5.34%; PfKRS1: 3.196%; CoaBC: 0.9823%
* O=C1[C@H]2CN(c3ncccn3)C[C@H]2CN1CC1CC1 | Pks13 thioesterase: -1.501%; PfKRS1: 1.663%; CoaBC: 1.921%
* O=C(C1CCOCC1)N1CCN2C(=O)N(Cc3ccc(F)cc3)C[C@H]2C1 | Pks13 thioesterase: -2.322%; PfKRS1: 3.657%; CoaBC: 11.96%

Data taken from ChEMBL document CHEMBL3988442, “University of Dundee, Small-Polar-MMV Screening Library” (2021).